Measured values from paper doi:10.1101/209809 (bioRxiv, 2017).
These are yes or no findings as the source states them, for the method shown.

By UniProt entry, the sequences of proteins in these tests, tags left out. Where a name states a change or a piece, a line headed by the entry shows the natural chain unless it says otherwise. Residues count along the entry.
UniProt O95639, 33-170, stated change not applied: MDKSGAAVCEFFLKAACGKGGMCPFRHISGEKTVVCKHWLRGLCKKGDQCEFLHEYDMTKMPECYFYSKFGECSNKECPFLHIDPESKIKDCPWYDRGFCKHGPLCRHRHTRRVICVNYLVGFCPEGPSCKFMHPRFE

Target: CPSF-160–WDR33 binary complex (human, UniProt Q10570 1-1443; Q9C0J8 1-572)
Experiment: SEC

binding: no binding
Substance: CPSF-30 deletion mutant (residues 33-170) (from UniProt O95639 33-170) (domain or fragment)
